Measurements reported in PubChem BioAssay AID1508588 (Peter MacCallum Cancer Centre, 2020)

Aim: 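Knock-downs boosting vemurafenib effects on melanoma cell growth or lactate release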 (primary screen)
Cells: human WM266.4 melanoma cells (BRAF V600 mutant)
Reagent: siRNA pool against human genes, 40 nM
Time to read-out: 96 h from transfection to read-out
Challenge: vemurafenib 300 nM (about IC25), added 48 h after transfection, for 48 h; comparison arm got DMSO vehicle only
Read-out: 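Ratios to non-targeting siRNA for cell gain, counted as DAPI nuclei after minus before drug and averaged over two replicates, and for absorbance-read medium lactate per cell; both binned into fold-change classes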
Direction: cell gain with vemurafenib: higher = more cell gain than with non-targeting siRNA; lactate per cell with vemurafenib: higher = more lactate made per cell
Active means: 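Enhancement is called by pairing each knock-down's vehicle-arm and drug-arm fold-change classes for viability or glycolysis; which class combinations qualify is not given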
Calls: active = enhances vemurafenib effect; inactive = no enhancement seen
Shown is a random part of about 18,000 deposited reagents. 790 of them (4.4%) were called active. 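Calls rest on a combination of fold-change classes in drug and vehicle arms, not all shown here.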 No sequences are given here.

| gene knocked down | PubChem SID | cell gain with vemurafenib | lactate per cell with vemurafenib | call |
| --- | --- | --- | --- | --- |
| AOPEP (aminopeptidase O (putative)) | SID135621089 | 0.91 | 0.8 | inactive |
| SNRPA1 (small nuclear ribonucleoprotein polypeptide A') | SID152155848 | 0.24 | 2.31 | inactive |
| ZC2HC1A (zinc finger C2HC-type containing 1A) | SID134324621 | 0.08 | 2.25 | inactive |
| FRS3 (fibroblast growth factor receptor substrate 3) | SID152149145 | 0.91 | 0.78 | inactive |
| TSC22D2 (TSC22 domain family member 2) | SID135624119 | 0.97 | 0.42 | inactive |
| PLBD2 (phospholipase B domain containing 2) | SID134322348 | 0 | 0 | inactive |
| IRX4 (iroquois homeobox 4) | SID134324497 | 0.52 | 0.96 | inactive |
| SEC22C (SEC22 homolog C, vesicle trafficking protein) | SID134316224 | 0.82 | 0.97 | inactive |
| TKFC (triokinase and FMN cyclase) | SID152154296 | 0.72 | 1.14 | inactive |
| IQCN (IQ motif containing N) | SID152152626 | 0.88 | 1.17 | inactive |
| KCNK5 (potassium two pore domain channel subfamily K member 5) | SID152156175 | 1.02 | 1.34 | inactive |
| LRRCC1 (leucine rich repeat and coiled-coil centrosomal protein 1) | SID152147953 | 0.46 | 1.2 | inactive |
| TCN2 (transcobalamin 2) | SID134315469 | 0.63 | 0.28 | active |
| P2RY4 (pyrimidinergic receptor P2Y4) | SID152147446 | 0.24 | 1.69 | inactive |
| ASB2 (ankyrin repeat and SOCS box containing 2) | SID134314306 | 0.13 | 2.15 | inactive |
| SLC25A24 | SID152150584 | 0.84 | 0.52 | inactive |
| CISD2 (CDGSH iron sulfur domain 2) | SID152155286 | 1.07 | 0.5 | inactive |
| LPIN2 (lipin 2) | SID134317683 | 0.41 | 1.12 | inactive |
| MYOM3 (myomesin 3) | SID135623257 | 0.81 | 1.08 | inactive |
| SOBP (sine oculis binding protein homolog) | SID152156679 | 0.55 | 1.05 | inactive |
| SPINDOC (spindlin interactor and repressor of chromatin binding) | SID134326598 | 0.81 | 0.22 | inactive |
| RAPGEF4 (Rap guanine nucleotide exchange factor 4) | SID152148240 | 0.85 | 0.23 | inactive |
| PEX5 (peroxisomal biogenesis factor 5) | SID134319812 | 0.61 | 1.08 | inactive |
| RBPJ | SID134312734 | 0.28 | 1.83 | inactive |
| HSPA8 (heat shock protein family A (Hsp70) member 8) | SID134321536 | 0.55 | 0.6 | inactive |
| UGT1A7 (UDP glucuronosyltransferase family 1 member A7) | SID134317974 | 0.02 | 0.94 | inactive |
| C14orf119 (chromosome 14 open reading frame 119) | SID134324893 | 0.66 | 0.66 | inactive |
| RUNX2 (RUNX family transcription factor 2) | SID152153203 | 0.46 | 0.6 | inactive |
| CFHR3 (complement factor H related 3) | SID152150932 | 0.74 | 0.94 | inactive |
| DHCR24 (24-dehydrocholesterol reductase) | SID152152274 | -0.07 | 1.09 | inactive |
| CPT2 (carnitine palmitoyltransferase 2) | SID135621597 | 0.96 | 0.55 | inactive |
| TMEM64 (transmembrane protein 64) | SID135624522 | 0.98 | 1.02 | inactive |
| IFT122 (intraflagellar transport 122) | SID152147700 | 0.27 | 0.69 | inactive |
| ZNF790 (zinc finger protein 790) | SID152151908 | 0.67 | 1.01 | inactive |

Not a retest: 4 of the entries above.
| gene knocked down | PubChem SID | cell gain with vemurafenib | lactate per cell with vemurafenib | call |
| --- | --- | --- | --- | --- |
| IQCN (IQ motif containing N) | SID152152626 | 0.88 | 1.17 | inactive |
| KCNK5 (potassium two pore domain channel subfamily K member 5) | SID152156175 | 1.02 | 1.34 | inactive |
| LRRCC1 (leucine rich repeat and coiled-coil centrosomal protein 1) | SID152147953 | 0.46 | 1.2 | inactive |
| TCN2 (transcobalamin 2) | SID134315469 | 0.63 | 0.28 | active |
